Whole data set: some 33,000 sequences, median “E-score (-0.5 to 0.5)” near -0.0014, cut for the highest 2% near 0.25. Some of the results follow.
The sequences below were run against T1, Cad1 (UniProt P24813) (assay: PBM E-score (8-mer binding enrichment) (E-score (-0.5 to 0.5)); higher = stronger / more preferred TF binding). Settings: protein concentration: 100 nM; construct: GST-full length.
T1 sequence: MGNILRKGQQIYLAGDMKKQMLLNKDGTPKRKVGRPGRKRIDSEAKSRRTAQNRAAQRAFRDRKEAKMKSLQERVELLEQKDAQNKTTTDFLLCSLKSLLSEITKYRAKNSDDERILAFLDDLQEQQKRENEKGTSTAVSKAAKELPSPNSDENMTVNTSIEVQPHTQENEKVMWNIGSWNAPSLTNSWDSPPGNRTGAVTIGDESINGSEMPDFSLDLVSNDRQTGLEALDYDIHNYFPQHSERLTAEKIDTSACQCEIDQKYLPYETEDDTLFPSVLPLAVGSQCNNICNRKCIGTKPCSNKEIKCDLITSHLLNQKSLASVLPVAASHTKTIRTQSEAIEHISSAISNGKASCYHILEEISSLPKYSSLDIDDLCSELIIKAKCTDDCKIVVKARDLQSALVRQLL
Protocol: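 Universal 'all 10-mer' protein binding microarrays (Agilent AMADID 015681) probed with GST-tagged S. cerevisiae TFs (full-length or DBD) made by in vitro transcription/translation (PURExpress), about 100-200 nM. Bound TF was detected with fluorescent anti-GST. Each ungapped 8-mer (which stands for itself and its reverse complement) is scored by the PBM enrichment score (E-score), a modified Wilcoxon-Mann-Whitney statistic from -0.5 to +0.5, computed with the Universal PBM Analysis Suite. Scale: above 0.35 generally sequence-specific binding.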

Compared with ATTGGGTG, ATTTTGCC is lower in “PBM E-score” value: 0.223 for the first, 0.00727 for the second.

First: ACAGAGAT
Second: CACGCACG
The “PBM E-score” value of the first is higher: 0.114 for the first, -0.131 for the second.

Compared with GTCCGGAA, ACTAGGCA is lower in “PBM E-score” value: 0.185 for the first, -0.12 for the second.

Going from CATCGTGG to ACCGTGGG, the “PBM E-score” value falls from -0.134 to -0.164.

Compared with TGCAGTAA, AGGAGGGA is lower in “PBM E-score” value: 0.00273 for the first, -0.172 for the second.

Compared with GTTTCAAA, AGGTCGCA is lower in “PBM E-score” value: 0.0237 for the first, -0.0717 for the second.

Compared with ACGGCAGC, CGTAGTGA is lower in “PBM E-score” value: -0.0399 for the first, -0.0912 for the second.

First: ACATACTC
Second: AATGTAGC
The “PBM E-score” value of the first is lower: -0.0622 for the first, -0.00519 for the second.

Going from GACACCAC to AGATAAAT, the “PBM E-score” value rises from -0.0527 to 0.139.

First: GCCACTAA
Second: ACTCGGCA
The “PBM E-score” value of the first is lower: 0.00114 for the first, 0.0624 for the second.

Compared with GCTCGTAA, AAGTGTCA is lower in “PBM E-score” value: -0.0485 for the first, -0.115 for the second.

Going from GCACACAA to ACAAAAGC, the “PBM E-score” value rises from 0.127 to 0.157.

First: GTGCTCCA
Second: CAAATGTG
The “PBM E-score” value of the first is lower: -0.119 for the first, 0.145 for the second.

Going from AAGTGAAC to AGGGAGAT, the “PBM E-score” value falls from -0.0802 to -0.277.

Going from AACGCTGC to ATGATACC, the “PBM E-score” value rises from 0.0374 to 0.151.

Going from ACCTCTAT to GTTTAATA, the “PBM E-score” value rises from 0.0745 to 0.189.

Compared with ACTGACTA, AAGCCGAA is lower in “PBM E-score” value: 0.116 for the first, 0.0954 for the second.

Going from AAAACCTA to CCGTACCC, the “PBM E-score” value falls from 0.121 to -0.0621.

First: CGCCGCCA
Second: AAGTAAAA
The “PBM E-score” value of the first is lower: -0.137 for the first, 0.0173 for the second.

Going from TCCGGACA to TACCTATA, the “PBM E-score” value falls from 0.205 to -0.0582.

Going from AATCCAAG to AGGCGATA, the “PBM E-score” value falls from 0.143 to -0.117.

First: GTGTTACA
Second: AAACGCTA
The “PBM E-score” value of the first is higher: -0.0597 for the first, -0.159 for the second.

First: GACGACAA
Second: CGTCAGAG
The “PBM E-score” value of the first is higher: 0.208 for the first, -0.0391 for the second.

Compared with GCCGTAGC, GCACCACC is lower in “PBM E-score” value: -0.0885 for the first, -0.16 for the second.

Compared with CCTACAAA, CACTGGCG is higher in “PBM E-score” value: -0.0767 for the first, -0.0107 for the second.

Compared with GGGCCTAC, ATGTCCCG is higher in “PBM E-score” value: -0.3 for the first, -0.137 for the second.

Compared with CAATACAC, ACTGTGCT is lower in “PBM E-score” value: 0.228 for the first, -0.0333 for the second.

Compared with ACCCGAGA, AGACCCGG is lower in “PBM E-score” value: 0.0384 for the first, -0.149 for the second.

First: CGGTGAGA
Second: GCCTAACA
The “PBM E-score” value of the first is lower: 0.022 for the first, 0.098 for the second.

Compared with GTACCTTA, CAATGCAA is higher in “PBM E-score” value: 0.0564 for the first, 0.0827 for the second.

Compared with TATCAATA, AACCACAC is lower in “PBM E-score” value: 0.177 for the first, 0.0857 for the second.

First: ATTGGAAA
Second: AGTAAAAT
The “PBM E-score” value of the first is lower: -0.0143 for the first, 0.216 for the second.

Compared with CGGAGACC, CTGACAGA is higher in “PBM E-score” value: -0.0789 for the first, 0.192 for the second.

Compared with CTATTAAG, AAGCATCC is lower in “PBM E-score” value: -0.191 for the first, -0.23 for the second.

Compared with CGGGCTCA, AGCCGCCA is higher in “PBM E-score” value: -0.276 for the first, -0.226 for the second.

Going from TCACGGAA to ATATAAAG, the “PBM E-score” value falls from 0.0721 to -0.0214.

Compared with GGCGCATA, TGCATCAA is higher in “PBM E-score” value: 0.0456 for the first, 0.198 for the second.

Compared with ATCATCCA, TGGCCTAA is higher in “PBM E-score” value: -0.00907 for the first, 0.0681 for the second.

Going from AACCGTCT to CAAGACCG, the “PBM E-score” value rises from -0.099 to -0.05.

Compared with ACTGCCTC, CATGAGAC is higher in “PBM E-score” value: -0.192 for the first, -0.171 for the second.

Compared with CTCTGAAG, AAAGCCAC is higher in “PBM E-score” value: -0.153 for the first, -0.0588 for the second.

Going from AGGCCCGC to GATAGTAA, the “PBM E-score” value rises from 0.0969 to 0.156.

Going from GTCAAAAC to TATGTACA, the “PBM E-score” value falls from 0.0371 to -0.00213.

Compared with CACATCGC, AAAACGTC is higher in “PBM E-score” value: -0.0385 for the first, 0.175 for the second.

First: GTGAGCTA
Second: CCCACTAG
The “PBM E-score” value of the first is higher: -0.029 for the first, -0.257 for the second.

First: AATCAACT
Second: CAAATAAC
The “PBM E-score” value of the first is lower: 0.152 for the first, 0.181 for the second.

First: AGTTTTAT
Second: CCGAAGTA
The “PBM E-score” value of the first is higher: 0.103 for the first, -0.0817 for the second.

First: CGCCATAC
Second: TAGAAGAA
The “PBM E-score” value of the first is higher: 0.102 for the first, -0.125 for the second.

Compared with AACCATTC, CAATGCCA is lower in “PBM E-score” value: -0.0245 for the first, -0.0658 for the second.

Compared with CGTTCTTA, ACATCGCC is lower in “PBM E-score” value: 0.0967 for the first, 0.0313 for the second.

Going from CGTACGCA to TCCTGCAA, the “PBM E-score” value rises from 0.00346 to 0.0444.

First: GGGGCGAC
Second: CGACATAG
The “PBM E-score” value of the first is lower: -0.16 for the first, -0.0597 for the second.

First: TGGCATAA
Second: AAAAATTG
The “PBM E-score” value of the first is higher: 0.168 for the first, -0.134 for the second.

First: AAAGGACG
Second: TGACTGCA
The “PBM E-score” value of the first is lower: -0.0954 for the first, 0.069 for the second.

First: CTGGAGAC
Second: AGATTGTA
The “PBM E-score” value of the first is lower: -0.122 for the first, 0.0103 for the second.

Compared with AAAAAGCC, TATCTAAA is lower in “PBM E-score” value: 0.184 for the first, 0.0192 for the second.

First: GGTTTCGA
Second: ATGGGGAG
The “PBM E-score” value of the first is higher: 0.0604 for the first, -0.223 for the second.

Compared with GCGCTCTA, TAACGCGA is higher in “PBM E-score” value: -0.148 for the first, 0.124 for the second.

Compared with CCGGTAAG, CTGTACAA is higher in “PBM E-score” value: 0.00932 for the first, 0.144 for the second.

First: TACGGAGA
Second: TGACGAAA
The “PBM E-score” value of the first is lower: -0.0721 for the first, 0.135 for the second.

Going from GATCGCGA to TCAGATGA, the “PBM E-score” value falls from 0.132 to 0.0891.

Going from CGTAAGCC to GTAGGTGA, the “PBM E-score” value falls from 0.166 to -0.0704.

Compared with CGATGGCC, CTCGACTA is higher in “PBM E-score” value: -0.0094 for the first, 0.0426 for the second.

Going from AGGGGCCA to AGTAATAG, the “PBM E-score” value rises from -0.203 to 0.16.

First: GCAGTACC
Second: CAGGGCAC
The “PBM E-score” value of the first is higher: -0.0449 for the first, -0.0726 for the second.

Going from AACTCAAA to AAGCGACG, the “PBM E-score” value falls from 0.111 to -0.059.

Compared with ATCTGTAG, GCCACAGC is lower in “PBM E-score” value: -0.0925 for the first, -0.115 for the second.

First: TACACGGA
Second: ACCTACTG
The “PBM E-score” value of the first is higher: 0.144 for the first, -0.186 for the second.

Compared with CTGCGAGA, GATCACCC is higher in “PBM E-score” value: -0.253 for the first, -0.0315 for the second.

Going from CGTGCACC to ACTGCTGG, the “PBM E-score” value falls from 0.0179 to -0.208.

First: TCCTGTAA
Second: ATGTATTC
The “PBM E-score” value of the first is higher: 0.101 for the first, -0.19 for the second.

Compared with ACACCTGC, ACAATTCA is lower in “PBM E-score” value: 0.0761 for the first, 0.0258 for the second.

First: CTCGGCCA
Second: CTACCCAC
The “PBM E-score” value of the first is higher: 0.0029 for the first, -0.0998 for the second.

Going from ACGAGTAA to GCTCAGTA, the “PBM E-score” value falls from 0.202 to 0.0858.

Compared with CTTATAAC, ATACAGCG is lower in “PBM E-score” value: 0.177 for the first, -0.0419 for the second.

Compared with AAAGTTTG, AGCGAGAA is higher in “PBM E-score” value: -0.0197 for the first, 0.0286 for the second.

Compared with ACGTATCG, TCAACAGA is higher in “PBM E-score” value: 0.0407 for the first, 0.098 for the second.

First: CGCAGTGC
Second: CAGAAGCA
The “PBM E-score” value of the first is lower: -0.172 for the first, -0.0564 for the second.

Going from ACGGCTCA to ATACTAAC, the “PBM E-score” value rises from 0.0668 to 0.13.

Going from ACGTGCTC to CACGTAGG, the “PBM E-score” value rises from -0.188 to -0.105.

Going from CCCGGGCG to ACGTACTG, the “PBM E-score” value falls from -0.0301 to -0.0913.

First: ACCGTGCC
Second: CTTATTAC
The “PBM E-score” value of the first is lower: -0.00064 for the first, 0.218 for the second.

Going from CGGAATTC to CAAGTGTC, the “PBM E-score” value falls from 0.0825 to -0.0435.

Going from AACCAGAG to CCAATGTA, the “PBM E-score” value falls from -0.0677 to -0.123.

Compared with GCACGACC, GTAAAGTA is higher in “PBM E-score” value: -0.154 for the first, 0.0722 for the second.

Compared with CCTTAAGA, GAACAGAA is higher in “PBM E-score” value: -0.0638 for the first, 0.0684 for the second.
